This note sets out measurements from PMC12431657, “Discovery and mechanistic insights of dibenzoylmethane as a broad spectrum inhibitor of coronavirus” (PLOS Pathogens, 2025).

Like-named read-outs stand apart in the source and are kept apart here. Screen size: about 3,300 compounds; about 95 (3%) showed an effect of 50% or more. This is one part of the list. Numbered stars: 1 amine (or outer) side, 2 acyl side, 3 side chain; on linkers, the order of the positions; unused ones are H or OH. Bridge positions count the residues as written; N and C are the ends. Square brackets hold non-standard residues; d marks the D form. Peptide text beside a SMILES is read from it. hTyr(3S-OH,4S-OH,3'-OSO3H) = N[C@H](C(=O)O)[C@H](O)[C@@H](O)c1ccc(O)c(OS(=O)(=O)O)c1; Orn(4R-OH,5R-OH) = O=C([C@H](C[C@@H](O)[C@@H](O)N[*:3])N[*:1])[*:2]; Pro(3S-OH,4S-Me) = C[C@H]1CN[C@H](C(=O)O)[C@H]1O; Gln(3R-OH) = NC(=O)C[C@@H](O)[C@H](N)C(=O)O; Hyp = O=C(O)[C@@H]1C[C@@H](O)CN1

The test system of this assay is HCoV-229E. On the set-up: species or system Huh-7; HTS, protection from HCoV-229E induced cell death, luminescent cell viability (CellCounting-Lite 2.0), inhibition rate. As to conditions: 24 h post infection, 1 h compound pre-incubation, 10 µM, inhibitor.

Turning to `CCC/C=C\C=C\CCCCCCCCCO` [Bombykol], the “229E Inhibition rate” value is recorded as 19.5%.
On the same count and under the same terms, as for `COc1ccc2c(c1)OC(O)C(=O)N2O` (stereo not shown) [DIMBOA], the figure is 37.2%; as for `C=C1CC[C@@]2(OC1)O[C@H]1C[C@H]3[C@@H]4CC=C5C[C@@H](O)C[C@@H](O)[C@]5(C)[C@H]4CC[C@]3(C)[C@H]1[C@@H]2C` [Neoruscogenin], 19.5%; as for `CCC(C)C(=O)O[C@@H]1[C@@H](OC(C)=O)[C@]2(C)[C@H](C(C)=O)CC[C@@]23O[C@]32CC[C@H]3C[C@@H](O[C@H]4C[C@@H](OC)[C@H](O[C@@H]5O[C@H](C)[C@@H](O)[C@@H](OC)[C@H]5O)[C@@H](C)O4)CC[C@]3(C)[C@@H]12` (stereo partly shown) [Tenacissoside H], 23.1%.
As to `C[C@]12C=CC(=O)C=C1CC[C@H]1[C@@H]3C[C@@H](O)[C@](O)(C(=O)CO)[C@@]3(C)C[C@H](O)[C@@]12F` [Triamcinolone], the “229E Inhibition rate” value is given as 0%.
For `O=C(O)C(=O)Cc1ccc(O)cc1` [4-Hydroxyphenylpyruvic acid], the “229E Inhibition rate” value is listed as 21.1%.
Still for that read-out and setting: as for `COc1cc(-c2cc(=O)c3c(O)cc(O[C@@H]4O[C@H](CO)[C@@H](O)[C@H](O)[C@H]4O[C@@H]4OC[C@](O)(CO)[C@H]4O)cc3o2)ccc1O` [3'-Methoxyapiin], the figure is 18.5%; as for `Nc1nc(N)nc(NC2CC2)n1` [Cyromazine], 6.2%.
Still for that read-out and setting: the result for `C[C@@H]1O[C@@H](OC[C@H]2O[C@@H](Oc3c(-c4ccc(OCCO)c(OCCO)c4)oc4cc(OCCO)cc(O)c4c3=O)[C@H](O)[C@@H](O)[C@@H]2O)[C@H](O)[C@H](O)[C@H]1O` [Troxerutin] reads 50.2%; that for `C=C1CC[C@H]2C[C@@H]1C2(C)C` [β-Pinene], 40.3%.
In the case of `C[C@@H](O)[C@@H]1NC(=O)[C@@H](N)C[C@@H](O)[C@@H](O)NC(=O)[C@@H]2[C@@H](O)[C@@H](C)CN2C(=O)[C@H]([C@H](O)CC(N)=O)NC(=O)[C@H]([C@H](O)[C@@H](O)c2ccc(O)c(OS(=O)(=O)O)c2)NC(=O)[C@@H]2C[C@@H](O)CN2C1=O` [FR179642] (H-[Orn(4R-OH,5R-OH)]T[Hyp][hTyr(3S-OH,4S-OH,3'-OSO3H)][Gln(3R-OH)][Pro(3S-OH,4S-Me)]; lactam 1-C), the “229E Inhibition rate” value was determined as 10.5%.
Turning to `O=c1c(O[C@@H]2O[C@H](CO)[C@@H](O)[C@H](O)[C@H]2O)c(-c2ccc(O)c(O)c2)oc2cc(O)cc(O)c12` [Isoquercitrin], the “229E Inhibition rate” value (229E Inhibition rate, 24 h) is on record as 7.7%.
Regarding `COc1ccc(/C=C/C(=O)c2ccc(OC)cc2)cc1` [4,4'-Dimethoxychalcone], the “229E Inhibition rate” value stood at 21.7%.
On the same count and under the same terms, the result for `CC(C)C[C@H](O)C(=O)O` [(S)-Leucic acid] reads 20.8%; that for `CC(C)=CC/C=C(\C)[C@H]1CC[C@]2(C)[C@@H]1[C@H](O)C[C@@H]1[C@@]3(C)CC[C@H](O[C@@H]4O[C@H](CO)[C@@H](O)[C@H](O)[C@H]4O[C@@H]4O[C@H](CO)[C@@H](O)[C@H](O)[C@H]4O)C(C)(C)[C@@H]3CC[C@]12C` [Ginsenoside Rg5], 9.8%.
The same measure, in the same setting: as for `C=C[C@H](O)CC(=NOS(=O)(=O)O)S[C@@H]1O[C@H](CO)[C@@H](O)[C@H](O)[C@H]1O` [Progoitrin], the figure is 26%.
In the case of `CCCCCCCC/C=C\CCCCCCCC(=O)NCCO` [Oleoylethanolamide], the “229E Inhibition rate” value is 11.2%.
For `O=C(O)[C@H](O)[C@@H](O)[C@H](O[C@@H]1O[C@H](CO)[C@H](O)[C@H](O)[C@H]1O)[C@H](O)CO` [Lactobionic acid], the “229E Inhibition rate” value worked out at 13.6%.
Same read-out and setting: as for `O=c1c2ccccc2nc2n1CC[C@@H]2O` [Vasicinone], the figure is 9.2%; as for `C#C[C@]1(O)CC[C@H]2[C@@H]3CCc4cc(O)ccc4[C@H]3CC[C@@]21C` [Ethynyl Estradiol], 15.3%; as for `OCc1cccc2ccccc12` [1-Naphthalenemethanol], 7.4%.
The same measure, in the same setting: as for `CC(C)=CCC[C@](C)(O[C@@H]1O[C@H](CO[C@@H]2OC[C@@H](O)[C@H](O)[C@H]2O)[C@@H](O)[C@H](O)[C@H]1O)[C@H]1CC[C@]2(C)[C@@H]1[C@H](O)C[C@@H]1[C@@]3(C)CC[C@H](O[C@@H]4O[C@H](CO)[C@@H](O)[C@H](O)[C@H]4O[C@@H]4O[C@H](CO)[C@@H](O)[C@H](O)[C@H]4O[C@@H]4OC[C@@H](O)[C@H](O)[C@H]4O)C(C)(C)[C@@H]3CC[C@]12C` [Notoginsenoside Fc], the figure is 21%.
The same measure, in the same setting: the result for `Cc1occc(=O)c1O` [Maltol] reads 35.7%.
Take `C[C@@H]1O[C@H]2O[C@H]3[C@@H](OC[C@H](O)[C@@H]3O)OC(=O)[C@]34CCC(C)(C)C[C@H]3C3=CC[C@@H]5[C@@]6(C)C[C@H](O)[C@H](O[C@@H]7O[C@H](CO)[C@@H](O)[C@H](O)[C@H]7O[C@@H]7OC[C@H](OC(=O)C[C@](C)(O)CC(=O)O[C@@H]1[C@@H](O[C@@H]1OC[C@@H](O)[C@H](O)[C@H]1O)[C@H]2O)[C@H](O)[C@H]7O)[C@@](C)(CO)[C@@H]6CC[C@@]5(C)[C@]3(C)C[C@H]4O` [Tubeimoside II]: the “229E Inhibition rate” value was determined as 0.9%.
As for `O=C(O)c1ccoc1` [3-Furanoic acid], the “229E Inhibition rate” value is recorded as 25.5%.
As to `OC[C@H]1O[C@H](O[C@H]2[C@H](O)[C@@H](O)[C@H](O)O[C@@H]2CO)[C@H](O)[C@@H](O)[C@@H]1O` [Maltose], the “229E Inhibition rate” value (229E Inhibition rate, 24 h) is listed as 7.5%.
In the case of `CC(C)=CCC[C@](C)(O[C@@H]1O[C@H](CO)[C@@H](O)[C@H](O)[C@H]1O)[C@H]1CC[C@]2(C)[C@@H]1[C@H](O)C[C@@H]1[C@@]3(C)C[C@@H](O)[C@H](O[C@@H]4O[C@H](CO)[C@@H](O)[C@H](O)[C@H]4O[C@@H]4O[C@H](CO)[C@@H](O)[C@H](O)[C@H]4O)C(C)(C)[C@@H]3CC[C@]12C` [Gypenoside XLVI], the “229E Inhibition rate” value worked out at 10.6%.
Same read-out and setting: the result for `COc1ccc2[nH]cc(CC(=O)O)c2c1` [5-Methoxyindole-3-acetic acid] reads 8.7%; that for `CC1(C)C2=CCCC(C)(C)[C@]23CC[C@H]1C3` [Isolongifolene], 0%.
The same measure, in the same setting: as for `COc1ccc2c(c1OC)C(=O)OC2` [Meconine], the figure is 3.9%; as for `COc1cc(OC)cc(C(=O)O)c1` [3,5-Dimethoxybenzoic acid], 7.6%; as for `OC[C@H]1O[C@H](OC[C@H]2OC(O)[C@H](O)[C@@H](O)[C@@H]2O)[C@H](O)[C@@H](O)[C@@H]1O` (stereo partly shown) [Isomaltose], 12.3%.
Still for that read-out and setting: as for `CC[C@@H]1[C@H]2CCCCN3[C@H]2[C@H](C[C@H]3[C@@H]2C[C@H](C)C(=O)O2)[C@@H]2[C@H]1OC(=O)[C@H]2C` [Tuberostemonine], the figure is 32.6%.
Consider `Cc1cc(O)c(C(=O)CCC(C)C)c(=O)o1` [Pogostone], for which the “229E Inhibition rate” value is on record as 6.7%.
In the case of `Nc1ncnc2c1ncn2[C@H]1C[C@H](O)[C@@H](COP(=O)(O)O)O1` [2'-Deoxyadenosine-5'-monophosphate], the “229E Inhibition rate” value came out at 0%.
Still for that read-out and setting: the result for `COc1cc(C=CC(=O)O)cc(OC)c1O` (stereo in doubt) [Sinapinic acid] reads 20.1%; that for `CCCCC(CC)COC(=O)C=Cc1ccc(OC)cc1` (stereo not shown) [Octinoxate], 13.8%; that for `O=CC[C@H](O)[C@H](O)CO` [Thyminose], 3.9%.
Same read-out and setting: as for `COc1ccc(/C=C\c2cc(OC)c(OC)c(OC)c2)cc1O` [Combretastatin A4], the figure is 17.1%; as for `COc1cc(CN)ccc1O` [Vanillylamine], 9.8%; as for `COc1cc2oc(=O)ccc2cc1CC=C(C)C` [Suberosin], 15.6%.
Same read-out and setting: the result for `COc1cc(/C=C/c2ccc(O)cc2)cc(OC)c1` [Pterostilbene] reads 13%; that for `CC(C)(O)[C@@H]1CC[C@](C)([C@H]2[C@@H](O)C[C@@]3(C)[C@@H]4C[C@H](O[C@@H]5O[C@H](CO)[C@@H](O)[C@H](O)[C@H]5O)[C@H]5C(C)(C)[C@@H](O[C@@H]6OC[C@@H](O)[C@H](O)[C@H]6O[C@@H]6O[C@H](CO)[C@@H](O)[C@H](O)[C@H]6O)CC[C@@]56C[C@@]46CC[C@]23C)O1` [Astragaloside VI], 27.8%; that for `COc1ccc2c(c1OC)O[C@H]1c3ccc(O[C@@H]4O[C@H](CO)[C@@H](O)[C@H](O)[C@H]4O)cc3OC[C@@H]21` [Methylnissolin-3-O-glucoside], 0%.
As to `COc1ccc([C@@H]2CC(=O)c3c(O)cc(O[C@@H]4O[C@H](CO)[C@@H](O)[C@H](O)[C@H]4O[C@@H]4O[C@@H](C)[C@H](O)[C@@H](O)[C@H]4O)cc3O2)cc1` [Poncirin], the “229E Inhibition rate” value came to 28.8%.
For `COc1cc2c(cc1OC)-c1c(C)c3ccc(OC)c(OC)c3c[n+]1CC2` [Dehydrocorydaline], the “229E Inhibition rate” value (229E Inhibition rate, 24 h) is 19.9%.
Same read-out and setting: as for `COc1cc2c(cc1OC)[C@@H]1Cc3ccc(OC)c(OC)c3CN1CC2` [Tetrahydropalmatine], the figure is 13.2%.
For the compound `C[C@@H]1O[C@@H](c2c(O)c([C@@H]3O[C@H](CO)[C@@H](O)[C@H](O)[C@H]3O)c3oc(-c4ccc(O)cc4)cc(=O)c3c2O)[C@H](O)[C@H](O)[C@H]1O` [Isoviolanthin], the “229E Inhibition rate” value worked out at 30.8%.
Still for that read-out and setting: the result for `C[C@@H]1O[C@@H](Oc2cc(O)c3c(=O)c(O)c(-c4ccc(O)cc4)oc3c2O)[C@H](O)[C@H](O[C@H]2O[C@@H](CO)[C@H](O)[C@@H](O)[C@@H]2O)[C@H]1O` [Rhodiosin] reads 42.2%; that for `O=C(O)Cc1ccc(O)cc1` [4-Hydroxyphenylacetic acid], 52.1%.
Same read-out and setting: the result for `COc1c(-c2ccccc2)oc2c(ccc3occc32)c1=O` [Karanjin] reads 5.8%.
The same measure, in the same setting: the result for `CC[C@H]1CN2CC[C@@]3(C(=O)Nc4ccccc43)[C@@H]2C[C@@H]1/C(=C\OC)C(=O)OC` [Isorhynchophylline] reads 7.9%.
